Laboratory results from PubChem BioAssay AID1347426 (Functional Genomics Laboratory (NCATS/FGL), 2020).
Hit rate of the full screen: of about 31,000 sequences, about 1,400 (4.5%) were called active.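 Rule for the calls: active = median seed-adjusted z-score above 1 or below -1; inactive = the rest.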 This is one part of the list.

Assay: Novel Modifiers of Survival Motor Neuron (SMN) Protein: Gene Identification via Genome-wide siRNA Screen;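 note: luminescence tracks full-length SMN protein made from the SMN2 reporter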
Conditions: HEK293T SMN2-luciferase reporter, siRNA knockdown, 72 h; actives lie on both sides
How it was run: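 Each of three siRNAs per gene is reverse-transfected (1 pmol) into reporter HEK293T cells whose luciferase output tracks SMN protein level. After 72 h culture, ONE-Glo luminescence is control-normalized, log10-transformed and MAD-standardized; Common Seed Analysis deprioritizes seed-driven hits.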

Sequence | median seed-adjusted z-score
CCAGAGCAAAGGCUAUGAATT against ZNF350 | inactive: 0.133
GGGUCACAGAGGUCGAUAUTT against PDILT | inactive: -0.0994
CACUACUAAAAACCUAAAATT against EFHD2 | inactive: 0.874
GAGCAAUAGGAUUUUAAUATT against SLC39A5 | inactive: -0.311
GAUCUAACGUGGUUUCACATT against B3GALT6 | inactive: 0.169
GAGCCCAUCCUGACCUACATT against KCNC4 | inactive: -0.433
GCUAGUCACAAUGCAGAUATT against RAB7A | inactive: 0.169
GCAGAUGCAUAUUAUGAAATT against IMPA1 | inactive: -0.295
CUUUCAACGAAGUCUAAAATT against ABCA5 | inactive: -0.376
GGCUGGACAGUAAUUCAGATT against ANGPTL4 | active: 1.37
GGGUGAAAACAAGUCUGAATT against POU1F1 | inactive: 0.5
CAGCAGUUCUUUGGAUUAATT against TAC1 | inactive: 0.0499
AGAUGGAAGCGAAAACUGATT against NFATC1 | inactive: 0.00712
UCUGCAUACUGCAAUCUGATT against RASL10B | inactive: -0.377
CUUGCUCCGUGAUGUCUUUTT against BID | inactive: 0.342
CAUUCGGAUUUAUGACAGUTT against NMT2 | inactive: 0.494
CUAAAUACAUUUGAAGUCATT against DCTN6 | inactive: 0.211
GCCUUAUUGUUACAUGGUUTT against SLC19A2 | inactive: -0.679
GCCCGUUCCAAGUCUGUGATT against USP21 | inactive: 0.248
CAUCGUCUCUUACUGGUUUTT against CPEB4 | inactive: -0.53
AGAGAGUGGUUUUUCCUCCTT against WWP2 | inactive: -0.685
GGACCAACAACUUCAUCAUTT against GGT7 | inactive: 0.135
GCAAUUUGCUGUUGCCGAATT against RHBDD1 | inactive: 0.00277
AGAACUACACGGAGAAGUUTT against MMP15 | inactive: -0.0489
CCUCUAAACUGGUACCGAATT against EPHX2 | inactive: 0
GGUACUCCAUAUACAGGUATT against GART | inactive: -0.414
CGCUUUGCUUCGUUGUUCATT against NR1D1 | inactive: -0.301
GCAUCAGCGUGCUCUUGUATT against SLC8A3 | inactive: -0.0434
CUAGUGAUAUCUCCAAUUATT against REV3L | inactive: 0.062
GCUUCUCUGCUACGUCGUATT against MMD2 | inactive: -0.0908

Quoted from the listing:
Entry of GGACCAACAACUUCAUCAUTT against GGT7 under median seed-adjusted z-score: inactive: 0.135
Entry of AGAGAGUGGUUUUUCCUCCTT against WWP2 under median seed-adjusted z-score: inactive: -0.685
